Results reported in the supplement of paper PMC4604168 (melanoma cell lines).
This is one part of the list. Many values rest on one well or one pass, so single values are uncertain.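 Cells were imaged in 1,536-well plates, and nuclei stained with an antibody against cleaved PARP were counted against all DNA-stained nuclei to give the apoptosis fraction. Screening doses were chosen to leave most cells alive, and resting and induced cleaved-PARP levels differ strongly between cell lines.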

system: COLO829; test: cleaved PARP positive nuclei fraction relative to DMSO control; melanoma cells; higher = more apoptosis; conditions: library dose: low library concentration; 72 h

Row | Compound | cleaved PARP positive nuclei fraction [%]
1 | Cc1ccc(NC(=O)c2cccc(N(C)C)c2)cc1NC(=O)c1ccc(O)cc1 + COc1cc(N2CCC(N3CCN(C)CC3)CC2)ccc1Nc1ncc(Cl)c(Nc2ccccc2S(=O)(=O)C(C)C)n1 [NVP-TAE684] (first compound 2 µM, partner dose 0.08 µM) | 89.5
2 | Cn1cncc1[C@@](N)(c1ccc(Cl)cc1)c1ccc2c(c1)c(-c1cccc(Cl)c1)cc(=O)n2C [tipifarnib] + CCc1ccc(CCOc2ccc(CC3SC(=O)NC3=O)cc2)nc1 [pioglitazone] (first compound 0.01 µM, partner dose 2 µM) | 132
3 | O=C(CCCCCCC(=O)Nc1ccccc1)NO [vorinostat] + COc1cc(N2CCC(N3CCN(C)CC3)CC2)ccc1Nc1ncc(Cl)c(Nc2ccccc2S(=O)(=O)C(C)C)n1 [NVP-TAE684] (first compound 0.08 µM, partner dose 0.08 µM) | 59
4 | O=C(Nc1cccc(Cl)c1)Nc1ncc(CCNc2ncnc3ccsc23)s1 + COC(=O)c1sccc1S(=O)(=O)Nc1ccc(Nc2ccccc2)cc1OC [GSK0660] (first compound 0.0008 µM, partner dose 1 µM) | 119
5 | C=CCn1c(=O)c2cnc(Nc3ccc(N4CCN(C)CC4)cc3)nc2n1-c1cccc(C(C)(C)O)n1 + CC(C)CCN1c2nc(Nc3cc(F)c(O)c(F)c3)ncc2N(C)C(=O)C1C [BID1870] (first compound 0.02 µM, partner dose 0.2 µM) | 51.9
6 | CO[C@@H]1[C@H](N(C)C(=O)c2ccccc2)C[C@H]2O[C@]1(C)n1c3ccccc3c3c4c(c5c6ccccc6n2c5c31)C(=O)NC4 [Midostaurin] + O=S(=O)(c1ccccc1)N(CC(F)(F)F)c1ccc(C(O)(C(F)(F)F)C(F)(F)F)cc1 [T0901317] (first compound 0.08 µM, partner dose 1.4 µM) | 156
7 | Nc1cccc2c1CN(C1CCC(=O)NC1=O)C2=O (stereo not given) [lenalidomide] + COC(=O)c1sccc1S(=O)(=O)Nc1ccc(Nc2ccccc2)cc1OC [GSK0660] (first compound 1 µM, partner dose 1 µM) | 137
8 | O=C(Nc1cccc(Cl)c1)Nc1ncc(CCNc2ncnc3ccsc23)s1 + CCc1ccc(CCOc2ccc(CC3SC(=O)NC3=O)cc2)nc1 [pioglitazone] (first compound 0.0008 µM, partner dose 2 µM) | 63.7
9 | COCC[n+]1c2c(n(Cc3cnccn3)c1C)C(=O)c1ccccc1C2=O + O=c1cc(-c2cccc3c2Sc2ccccc2S3)oc(N2CCOCC2)c1 [KU55933] (first compound 0.0004 µM, partner dose 1 µM) | 118
10 | Nc1cccc2c1CN(C1CCC(=O)NC1=O)C2=O (stereo not given) [lenalidomide] + COc1ccc(-c2ccc3c(N4CCOCC4)nc(N4C[C@@H](C)O[C@@H](C)C4)nc3n2)cc1CO [KU0063794] (first compound 1 µM, partner dose 0.02 µM) | 64.7
11 | NC(=O)Nc1cc(-c2cccc(F)c2)sc1C(=O)N[C@H]1CCCNC1 + Cn1cc(/C=C2\C(=O)Nc3cccnc32)c2ccccc21 [GW441756] (first compound 0.02 µM, partner dose 0.4 µM) | 54.7
12 | COc1cc(Nc2ncc(F)c(Nc3ccc4c(n3)NC(=O)C(C)(C)O4)n2)cc(OC)c1OC [Tamatinib] + COc1cc(N2CCC(N3CCN(C)CC3)CC2)ccc1Nc1ncc(Cl)c(Nc2ccccc2S(=O)(=O)C(C)C)n1 [NVP-TAE684] (first compound 0.4 µM, partner dose 0.08 µM) | 161
13 | NC(=O)Nc1cc(-c2cccc(F)c2)sc1C(=O)N[C@H]1CCCNC1 + CCN(CC)CCCCNc1ncc2cc(-c3cc(OC)cc(OC)c3)c(NC(=O)NC(C)(C)C)nc2n1 [PD173074] (first compound 0.02 µM, partner dose 0.1 µM) | 95.8
14 | O=C(CCCCCCC(=O)Nc1ccccc1)NO [vorinostat] + CCCCCCCCCCCC1=C(O)C(=O)C=C(O)C1=O [Embelin] (first compound 0.08 µM, partner dose 1.2 µM) | 105
15 | O=C(Nc1cccc(Cl)c1)Nc1ncc(CCNc2ncnc3ccsc23)s1 + COc1ccc(-c2ccc3c(N4CCOCC4)nc(N4C[C@@H](C)O[C@@H](C)C4)nc3n2)cc1CO [KU0063794] (first compound 0.0008 µM, partner dose 0.02 µM) | 71.3

Rewritten in CSV form: entries from further up
Row,Compound,cleaved PARP positive nuclei fraction [%]
10,"Nc1cccc2c1CN(C1CCC(=O)NC1=O)C2=O (stereo not given) [lenalidomide] + COc1ccc(-c2ccc3c(N4CCOCC4)nc(N4C[C@@H](C)O[C@@H](C)C4)nc3n2)cc1CO [KU0063794] (first compound 1 µM, partner dose 0.02 µM)",64.7
11,"NC(=O)Nc1cc(-c2cccc(F)c2)sc1C(=O)N[C@H]1CCCNC1 + Cn1cc(/C=C2\C(=O)Nc3cccnc32)c2ccccc21 [GW441756] (first compound 0.02 µM, partner dose 0.4 µM)",54.7
